Measurements reported in the supplement of paper PMC12819154, “High-throughput peptide-centric local stability assay extends protein–ligand identification to membrane proteins, tissues and bacteria” (Nature Structural & Molecular Biology, 2025).
The list shows a part of the results. Most entries show no effect beyond the scatter of the controls.

Protein sequences, listed by entry. Tags and fused reporters are not part of them. Lines headed by an entry give the natural chain unless they say otherwise; changes in a name come on top.
UniProt P27832: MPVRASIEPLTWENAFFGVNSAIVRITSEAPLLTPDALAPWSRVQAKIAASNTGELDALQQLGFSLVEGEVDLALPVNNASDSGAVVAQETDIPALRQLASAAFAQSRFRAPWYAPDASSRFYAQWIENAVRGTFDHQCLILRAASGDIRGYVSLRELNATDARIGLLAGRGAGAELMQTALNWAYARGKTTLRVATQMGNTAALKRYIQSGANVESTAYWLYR
UniProt P32719: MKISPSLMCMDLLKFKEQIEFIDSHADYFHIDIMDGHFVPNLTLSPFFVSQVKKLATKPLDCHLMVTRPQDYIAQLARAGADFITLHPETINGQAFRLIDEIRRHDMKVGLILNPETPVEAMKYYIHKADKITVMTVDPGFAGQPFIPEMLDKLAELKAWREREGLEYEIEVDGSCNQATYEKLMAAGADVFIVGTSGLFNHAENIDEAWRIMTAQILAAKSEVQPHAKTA
UniProt P25437: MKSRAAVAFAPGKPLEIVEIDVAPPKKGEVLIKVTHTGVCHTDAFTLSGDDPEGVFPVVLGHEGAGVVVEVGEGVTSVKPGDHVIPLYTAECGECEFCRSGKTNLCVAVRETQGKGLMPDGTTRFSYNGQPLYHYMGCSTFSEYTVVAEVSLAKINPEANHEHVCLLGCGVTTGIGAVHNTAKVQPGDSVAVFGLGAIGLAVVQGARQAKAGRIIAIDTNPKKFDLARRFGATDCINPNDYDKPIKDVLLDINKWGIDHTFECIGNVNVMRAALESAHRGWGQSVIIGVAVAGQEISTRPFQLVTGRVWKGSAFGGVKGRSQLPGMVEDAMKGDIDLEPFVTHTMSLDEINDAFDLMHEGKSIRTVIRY
UniProt P33229: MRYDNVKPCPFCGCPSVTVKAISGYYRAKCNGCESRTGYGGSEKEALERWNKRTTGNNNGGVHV
UniProt P30871: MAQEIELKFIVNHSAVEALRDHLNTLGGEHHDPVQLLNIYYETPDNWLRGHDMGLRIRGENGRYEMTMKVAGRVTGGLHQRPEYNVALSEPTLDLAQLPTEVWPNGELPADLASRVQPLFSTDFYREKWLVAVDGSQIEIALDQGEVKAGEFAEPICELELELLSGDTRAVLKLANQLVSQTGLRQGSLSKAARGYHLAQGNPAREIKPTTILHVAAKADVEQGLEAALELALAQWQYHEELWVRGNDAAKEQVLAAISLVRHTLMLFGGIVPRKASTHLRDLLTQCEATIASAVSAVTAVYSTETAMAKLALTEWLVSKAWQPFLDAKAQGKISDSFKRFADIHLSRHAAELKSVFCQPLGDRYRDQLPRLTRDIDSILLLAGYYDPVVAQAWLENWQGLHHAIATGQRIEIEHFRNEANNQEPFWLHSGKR
UniProt P24180: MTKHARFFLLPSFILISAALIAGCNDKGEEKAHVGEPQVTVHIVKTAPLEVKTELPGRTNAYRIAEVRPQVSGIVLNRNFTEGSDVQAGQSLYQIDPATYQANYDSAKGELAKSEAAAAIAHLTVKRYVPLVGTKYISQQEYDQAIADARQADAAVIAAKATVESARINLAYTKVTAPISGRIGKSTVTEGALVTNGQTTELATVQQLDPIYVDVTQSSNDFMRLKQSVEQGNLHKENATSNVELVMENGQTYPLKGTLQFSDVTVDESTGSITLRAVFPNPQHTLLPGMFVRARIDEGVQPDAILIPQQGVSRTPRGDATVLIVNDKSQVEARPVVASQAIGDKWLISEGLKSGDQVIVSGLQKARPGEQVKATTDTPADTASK
UniProt P28916: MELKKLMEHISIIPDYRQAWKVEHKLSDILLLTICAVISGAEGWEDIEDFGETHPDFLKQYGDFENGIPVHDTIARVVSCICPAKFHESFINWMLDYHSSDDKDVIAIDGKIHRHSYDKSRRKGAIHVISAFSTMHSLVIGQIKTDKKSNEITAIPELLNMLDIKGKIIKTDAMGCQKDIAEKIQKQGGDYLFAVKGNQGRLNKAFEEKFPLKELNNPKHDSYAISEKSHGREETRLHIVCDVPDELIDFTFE
UniProt P32157: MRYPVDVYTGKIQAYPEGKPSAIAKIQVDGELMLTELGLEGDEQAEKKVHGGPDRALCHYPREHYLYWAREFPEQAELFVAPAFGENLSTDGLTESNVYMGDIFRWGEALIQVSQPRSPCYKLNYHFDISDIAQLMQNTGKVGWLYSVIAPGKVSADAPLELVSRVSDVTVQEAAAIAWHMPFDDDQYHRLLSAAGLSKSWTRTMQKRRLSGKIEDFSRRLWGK
UniProt P30149: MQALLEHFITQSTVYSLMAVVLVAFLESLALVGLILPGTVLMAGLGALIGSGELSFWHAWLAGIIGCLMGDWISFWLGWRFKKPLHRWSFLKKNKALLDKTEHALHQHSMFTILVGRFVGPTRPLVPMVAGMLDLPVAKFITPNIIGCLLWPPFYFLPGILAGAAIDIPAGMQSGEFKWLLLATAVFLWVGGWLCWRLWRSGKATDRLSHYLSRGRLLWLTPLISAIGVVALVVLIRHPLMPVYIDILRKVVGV
UniProt P31665: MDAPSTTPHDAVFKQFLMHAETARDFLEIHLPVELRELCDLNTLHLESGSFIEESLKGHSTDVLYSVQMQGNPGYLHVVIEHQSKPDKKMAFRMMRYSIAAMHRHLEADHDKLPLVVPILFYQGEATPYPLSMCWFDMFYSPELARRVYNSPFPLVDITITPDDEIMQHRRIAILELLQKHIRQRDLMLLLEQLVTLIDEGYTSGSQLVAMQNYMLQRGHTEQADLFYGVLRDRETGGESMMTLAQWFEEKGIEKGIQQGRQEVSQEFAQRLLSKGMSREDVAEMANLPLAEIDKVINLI
UniProt P31129: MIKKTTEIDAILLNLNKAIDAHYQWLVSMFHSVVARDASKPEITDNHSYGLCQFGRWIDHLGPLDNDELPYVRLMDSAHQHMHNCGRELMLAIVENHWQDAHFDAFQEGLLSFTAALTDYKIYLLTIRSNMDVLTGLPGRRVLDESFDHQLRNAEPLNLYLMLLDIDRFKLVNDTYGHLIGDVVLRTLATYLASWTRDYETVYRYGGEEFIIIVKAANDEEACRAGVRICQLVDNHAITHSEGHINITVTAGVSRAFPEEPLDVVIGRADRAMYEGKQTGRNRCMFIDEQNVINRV
UniProt P27848: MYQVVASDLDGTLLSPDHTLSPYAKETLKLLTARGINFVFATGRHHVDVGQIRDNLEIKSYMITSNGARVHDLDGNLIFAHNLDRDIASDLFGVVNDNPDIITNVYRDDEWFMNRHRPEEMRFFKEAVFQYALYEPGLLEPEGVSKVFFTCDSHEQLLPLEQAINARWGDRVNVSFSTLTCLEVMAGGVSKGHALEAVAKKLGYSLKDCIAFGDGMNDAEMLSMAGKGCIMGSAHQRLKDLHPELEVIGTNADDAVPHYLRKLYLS
UniProt P31459: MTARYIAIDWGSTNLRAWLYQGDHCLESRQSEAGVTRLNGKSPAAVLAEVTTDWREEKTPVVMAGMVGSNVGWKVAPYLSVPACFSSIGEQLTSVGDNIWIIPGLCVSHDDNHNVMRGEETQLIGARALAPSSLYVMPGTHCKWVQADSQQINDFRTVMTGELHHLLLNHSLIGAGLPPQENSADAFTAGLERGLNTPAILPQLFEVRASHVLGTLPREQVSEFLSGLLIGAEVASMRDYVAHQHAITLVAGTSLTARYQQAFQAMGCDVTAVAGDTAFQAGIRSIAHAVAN
UniProt P31979: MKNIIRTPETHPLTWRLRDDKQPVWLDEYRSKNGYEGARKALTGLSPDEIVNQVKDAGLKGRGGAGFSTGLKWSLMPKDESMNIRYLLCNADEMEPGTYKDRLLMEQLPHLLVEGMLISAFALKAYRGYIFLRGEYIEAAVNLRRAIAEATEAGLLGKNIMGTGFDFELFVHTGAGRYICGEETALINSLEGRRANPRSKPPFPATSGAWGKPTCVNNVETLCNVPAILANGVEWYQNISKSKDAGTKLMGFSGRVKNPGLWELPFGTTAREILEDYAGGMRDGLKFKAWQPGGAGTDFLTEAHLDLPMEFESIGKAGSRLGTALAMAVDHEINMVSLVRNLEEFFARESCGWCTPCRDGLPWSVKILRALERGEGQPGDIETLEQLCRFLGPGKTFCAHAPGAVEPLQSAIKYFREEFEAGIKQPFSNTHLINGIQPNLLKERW
UniProt P32131: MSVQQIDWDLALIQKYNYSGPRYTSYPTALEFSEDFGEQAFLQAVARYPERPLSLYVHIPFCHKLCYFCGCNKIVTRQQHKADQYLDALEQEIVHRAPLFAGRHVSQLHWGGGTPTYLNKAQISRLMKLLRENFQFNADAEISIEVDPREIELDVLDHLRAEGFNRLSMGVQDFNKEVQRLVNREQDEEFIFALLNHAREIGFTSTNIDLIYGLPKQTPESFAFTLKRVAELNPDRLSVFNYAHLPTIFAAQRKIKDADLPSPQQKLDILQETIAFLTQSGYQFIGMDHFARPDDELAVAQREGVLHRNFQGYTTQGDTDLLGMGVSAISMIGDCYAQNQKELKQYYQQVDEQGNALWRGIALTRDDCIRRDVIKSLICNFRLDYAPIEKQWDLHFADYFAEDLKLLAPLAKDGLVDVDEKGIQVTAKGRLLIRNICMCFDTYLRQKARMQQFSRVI
UniProt P31600: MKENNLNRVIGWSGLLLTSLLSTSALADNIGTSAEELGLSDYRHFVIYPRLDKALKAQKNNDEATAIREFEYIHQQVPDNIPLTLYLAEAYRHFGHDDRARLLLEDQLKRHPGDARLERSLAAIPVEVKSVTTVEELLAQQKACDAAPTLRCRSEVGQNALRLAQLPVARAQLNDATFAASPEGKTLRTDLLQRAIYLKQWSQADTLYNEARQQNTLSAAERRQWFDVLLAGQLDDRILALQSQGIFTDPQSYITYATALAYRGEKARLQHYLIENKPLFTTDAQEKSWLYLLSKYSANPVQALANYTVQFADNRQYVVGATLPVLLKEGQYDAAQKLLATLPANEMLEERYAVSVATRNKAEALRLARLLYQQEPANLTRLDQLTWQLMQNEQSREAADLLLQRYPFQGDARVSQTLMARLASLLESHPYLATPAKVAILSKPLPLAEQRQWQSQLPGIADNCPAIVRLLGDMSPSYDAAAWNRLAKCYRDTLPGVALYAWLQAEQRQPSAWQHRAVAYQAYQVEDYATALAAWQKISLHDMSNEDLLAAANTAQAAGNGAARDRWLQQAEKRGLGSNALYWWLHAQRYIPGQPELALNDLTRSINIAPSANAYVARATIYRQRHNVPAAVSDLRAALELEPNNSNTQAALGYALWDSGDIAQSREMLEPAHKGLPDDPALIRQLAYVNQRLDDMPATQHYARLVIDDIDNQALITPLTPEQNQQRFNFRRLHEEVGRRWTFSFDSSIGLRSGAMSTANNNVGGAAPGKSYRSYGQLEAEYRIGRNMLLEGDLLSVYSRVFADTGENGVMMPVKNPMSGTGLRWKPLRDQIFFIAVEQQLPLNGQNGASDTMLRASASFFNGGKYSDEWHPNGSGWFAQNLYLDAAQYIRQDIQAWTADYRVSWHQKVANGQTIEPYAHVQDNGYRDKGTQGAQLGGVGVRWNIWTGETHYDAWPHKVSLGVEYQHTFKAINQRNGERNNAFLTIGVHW
UniProt P27828: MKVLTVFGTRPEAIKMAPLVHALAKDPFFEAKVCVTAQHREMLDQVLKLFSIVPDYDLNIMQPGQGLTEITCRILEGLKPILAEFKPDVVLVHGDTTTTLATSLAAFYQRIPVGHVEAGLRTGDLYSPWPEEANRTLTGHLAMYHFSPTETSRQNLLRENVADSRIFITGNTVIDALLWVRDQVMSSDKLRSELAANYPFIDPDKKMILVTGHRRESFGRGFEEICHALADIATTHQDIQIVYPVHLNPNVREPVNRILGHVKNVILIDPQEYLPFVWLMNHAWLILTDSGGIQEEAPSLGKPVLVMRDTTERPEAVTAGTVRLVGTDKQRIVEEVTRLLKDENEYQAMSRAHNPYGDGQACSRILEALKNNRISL
UniProt P33354: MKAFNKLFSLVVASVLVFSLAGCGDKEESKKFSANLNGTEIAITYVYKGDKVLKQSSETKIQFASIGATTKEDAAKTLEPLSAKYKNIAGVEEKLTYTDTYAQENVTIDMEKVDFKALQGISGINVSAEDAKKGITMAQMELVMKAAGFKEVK
UniProt P31826: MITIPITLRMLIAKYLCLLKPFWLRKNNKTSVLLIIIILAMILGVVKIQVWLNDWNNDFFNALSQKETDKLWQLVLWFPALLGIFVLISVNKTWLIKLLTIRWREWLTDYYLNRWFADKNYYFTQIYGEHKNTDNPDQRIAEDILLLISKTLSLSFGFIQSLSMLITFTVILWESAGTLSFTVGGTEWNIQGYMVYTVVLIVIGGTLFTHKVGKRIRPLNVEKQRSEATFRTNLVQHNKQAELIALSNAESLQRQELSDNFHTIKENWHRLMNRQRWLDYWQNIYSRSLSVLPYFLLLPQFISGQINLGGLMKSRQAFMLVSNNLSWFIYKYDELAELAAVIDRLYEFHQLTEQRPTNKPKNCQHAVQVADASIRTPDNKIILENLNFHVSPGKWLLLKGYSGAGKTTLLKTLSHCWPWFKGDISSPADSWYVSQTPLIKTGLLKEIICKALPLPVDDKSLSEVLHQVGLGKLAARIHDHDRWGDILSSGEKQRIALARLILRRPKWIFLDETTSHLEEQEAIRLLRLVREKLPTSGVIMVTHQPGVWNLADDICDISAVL

compound: CC1(C)S[C@@H]2[C@H](NC(=O)[C@H](N)c3ccccc3)C(=O)N2[C@H]1C(=O)O [ampicillin]; assay: log2 fold change of tryptic peptide abundance, ligand vs vehicle (limited proteolysis) (log2 ratio); higher = more trypsin-susceptible (destabilized); settings: ligand concentration: 10 uM; sample: E. coli crude lysate

Row | Target | log2 fold change
1 | UniProt P25665 (peptide sequence: LWVNPDCGLK, peptide start residue: 720) | -0.507
2 | UniProt P27832 (peptide sequence: QLASAAFAQSR, peptide start residue: 98) | -0.291
3 | UniProt P31130 (peptide sequence: DKSGEINVVIPAAVFDGR, peptide start residue: 83) | 0.138
4 | UniProt P32719 (peptide sequence: SEVQPHAK, peptide start residue: 222) | 0.484
5 | UniProt P32144 (peptide sequence: HDQLLMLIAER, peptide start residue: 12) | -0.195
6 | UniProt P25437 (peptide sequence: SQLPGMVEDAMK, peptide start residue: 321) | 0.172
7 | UniProt P33229 (peptide sequence: TGYGGSEKEALER, peptide start residue: 37) | -0.479
8 | UniProt P30871 (peptide sequence: IRGENGRYEMTMK, peptide start residue: 57) | 0.429
9 | UniProt P24180 (peptide sequence: SGDQVIVSGLQK, peptide start residue: 354) | 0.316
10 | UniProt P25740 (peptide sequence: YSEQIPNSR, peptide start residue: 175) | -0.396
11 | UniProt P28916 (peptide sequence: DVIAIDGKIHR, peptide start residue: 104) | 0.381
12 | UniProt P32157 (peptide sequence: RLSGKIEDFSR, peptide start residue: 209) | 0.21
13 | UniProt P31678 (peptide sequence: IGTGATQASWR, peptide start residue: 219) | 0.454
14 | UniProt P31443 (peptide sequence: SPMELMTMLR, peptide start residue: 156) | -0.405
15 | UniProt P30149 (peptide sequence: LSHYLSR, peptide start residue: 208) | 0.0766
16 | UniProt P31665 (peptide sequence: QEVSQEFAQR, peptide start residue: 262) | -0.151

A different layout for part of the listing above.

| Row | Target | log2 fold change |
| --- | --- | --- |
| 2 | UniProt P27832 (peptide sequence: QLASAAFAQSR, peptide start residue: 98) | -0.291 |
| 13 | UniProt P31678 (peptide sequence: IGTGATQASWR, peptide start residue: 219) | 0.454 |

(continued)

Row | Target | log2 fold change
17 | UniProt P31129 (peptide sequence: LVNDTYGHLIGDVVLR, peptide start residue: 171) | 0.529
18 | UniProt P27848 (peptide sequence: HHVDVGQIRDNLEIK, peptide start residue: 45) | 0.276
19 | UniProt P31459 (peptide sequence: GEETQLIGAR, peptide start residue: 118) | -0.355
20 | UniProt P25666 (peptide sequence: MHLFTIK, peptide start residue: 171) | 0.293
21 | UniProt P31979 (peptide sequence: EILEDYAGGMRDGLK, peptide start residue: 272) | -0.373
22 | UniProt P28722 (peptide sequence: VEAGQVQQVR, peptide start residue: 77) | -0.334
23 | UniProt P32131 (peptide sequence: LSVFNYAHLPTIFAAQRK, peptide start residue: 237) | -0.645
24 | UniProt P33368 (peptide sequence: IINITSVHEHTPLPDASAYTAAK, peptide start residue: 135) | -0.275
25 | UniProt P31447 (peptide sequence: DYDTGLPTQGVK, peptide start residue: 478) | 0.197
26 | UniProt P30744 (peptide sequence: NLLKDVTR, peptide start residue: 37) | -0.554
27 | UniProt P31600 (peptide sequence: EGQYDAAQK, peptide start residue: 329) | 0.471
28 | UniProt P28249 (peptide sequence: HNWQGQAHVEMTDTR, peptide start residue: 446) | 0.539
29 | UniProt P27828 (peptide sequence: SELAANYPFIDPDKK, peptide start residue: 192) | 0.158
30 | UniProt P33354 (peptide sequence: IQFASIGATTKEDAAK, peptide start residue: 61) | 0.0234
31 | UniProt P31826 (peptide sequence: NCQHAVQVADASIR, peptide start residue: 362) | 0.0303
